Assay results published in US20250145708A1 (GOOD T CELLS, published 2025).
Results are given in words; binding and its absence hold for the method and conditions named. Some results given as binding are weak or reduced against the parent protein; the word gives no strength.

T1: Lrig-1 protein (leucine-rich and immunoglobulin-like domains 1) expressed on the surface of L cells (human) (UniProt Q96JA1)
T1 sequence: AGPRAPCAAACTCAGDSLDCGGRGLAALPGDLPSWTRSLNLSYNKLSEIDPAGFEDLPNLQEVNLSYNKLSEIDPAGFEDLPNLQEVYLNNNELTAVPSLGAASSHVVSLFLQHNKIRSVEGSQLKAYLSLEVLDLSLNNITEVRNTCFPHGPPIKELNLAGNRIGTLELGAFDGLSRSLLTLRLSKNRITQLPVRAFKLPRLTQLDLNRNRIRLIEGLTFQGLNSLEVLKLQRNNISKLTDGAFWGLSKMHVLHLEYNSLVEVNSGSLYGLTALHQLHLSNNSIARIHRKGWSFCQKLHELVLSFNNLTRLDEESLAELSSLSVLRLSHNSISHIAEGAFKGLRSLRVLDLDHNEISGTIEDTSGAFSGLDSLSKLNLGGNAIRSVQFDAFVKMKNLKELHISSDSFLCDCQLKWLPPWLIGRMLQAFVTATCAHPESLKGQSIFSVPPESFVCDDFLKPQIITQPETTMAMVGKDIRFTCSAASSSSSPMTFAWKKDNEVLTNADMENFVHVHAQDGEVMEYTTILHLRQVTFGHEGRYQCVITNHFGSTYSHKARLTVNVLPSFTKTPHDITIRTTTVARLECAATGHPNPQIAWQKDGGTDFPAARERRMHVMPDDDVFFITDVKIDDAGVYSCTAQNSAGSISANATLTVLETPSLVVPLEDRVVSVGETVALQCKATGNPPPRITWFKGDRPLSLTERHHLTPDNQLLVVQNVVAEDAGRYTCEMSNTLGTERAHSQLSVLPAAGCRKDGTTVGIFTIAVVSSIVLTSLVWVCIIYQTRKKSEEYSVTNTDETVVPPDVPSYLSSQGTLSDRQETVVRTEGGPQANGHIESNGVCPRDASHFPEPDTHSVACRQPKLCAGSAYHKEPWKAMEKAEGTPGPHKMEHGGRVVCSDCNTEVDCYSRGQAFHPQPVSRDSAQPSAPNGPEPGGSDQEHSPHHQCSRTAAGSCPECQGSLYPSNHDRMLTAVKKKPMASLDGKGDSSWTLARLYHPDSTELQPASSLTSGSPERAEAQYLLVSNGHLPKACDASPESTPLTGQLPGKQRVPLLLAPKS

T2: Lrig-1 epitope peptide SEQ ID NO: 29
T2 sequence (peptide): KGDRPLSLTERHH


How the values were obtained:
[1] = biological target: T1, Lrig-1 protein (leucine-rich and immunoglobulin-like domains 1) expressed on the surface of L cells (human); assay: FACS on L cells stably expressing Lrig-1, eFluor 670 anti-mouse secondary antibody
[2] = biological target: T2, Lrig-1 epitope peptide SEQ ID NO: 29; assay: Lrig-1 peptide microarray (15-mers, 14 aa overlap), H6 at 1, 10 and 100 µg/ml

binding [1]	binding [2]	Binder
binds		A7 clone monoclonal antibody (Production Example 1) (antibody, mouse IgG2a, V domains shown) VH: EVQLLESGGGLVQPGGSLRLSCAASGFTFSGYDMSWVRQAPGKGLEWVSLIYPDSGNKYYADSVKGRFTISRDNSKNTLYLQMNSLRAEDTAVYYCARDAGLSWAGAFDYWGQGTLVTVSS VL: QSVLTQPPSASGTPGQRVTISCSGSSSNIGSNYVTWYQQLPGTAPKLLIYSDSHRPSGVPDRFSGSKSGTSASLAISGLQSEDEADYYCGSWDYSLSAYVFGGGTKLTVLR
binds		C8 clone monoclonal antibody (Production Example 2) (antibody, mouse IgG2a, V domains shown) VH: EVQLLESGGGLVQPGGSLRLSCAASGFTFSNYYMSWVRQAPGKGLEWVSGISPGDSSTYYADSVKGRFTISRDNSKNTLYLQMNSLRAEDTAVYYCAKGLYSNPNEPFDYWGQGTLVTVSS VL: QSVLTQPPSASGTPGQRVTISCTGSSSNIGSNYVSWYQQLPGTAPKLLIYDDSQRPSGVPDRFSGSKSGTSASLAISGLRSEDEADYYCGTWDYSLNGYVFGGGTKLTVLR
binds		E7 clone monoclonal antibody (Production Example 3) (antibody, mouse IgG2a, V domains shown) VH: EVQLLESGGGLVQPGGSLRLSCAASGFTFSSYDMSWVRQAPGKGLEWVSGISPDGSNIYYADSVKGRFTISRDNSKNTLYLQMNSLRAEDTAVYYCAKVGLRCRYEACSYAYGMDVWGQGTLVTVSS VL: QSVLTQPPSASGTPGQRVTISCSGSSSNIGSNYVSWYQQLPGTAPKLLIYSDSHRPSGVPDRFSGSKSGTSASLAISGLRSEDEADYYCATWDSSLNGYVFGGGTKLTVLR

The next lines start with the binder.

Binder	binding [1]	binding [2]
H6 clone monoclonal antibody (Production Example 8) (antibody, mouse IgG2a, V domains shown, also called H6 monoclonal antibody) VH: EVQLLESGGGLVQPGGSLRLSCAASGFTFSNYAMSWVRQAPGKGLEWVSVISHGGGSTYYADSVKGRFTISRDNSKNTLYLQMNSLRAEDTAVYYCARVISNCHLGVCYYSNGMDVWGQGTLVTVSS VL: QSVLTQPPSASGTPGQRVTISCSGSSSNIGNNDVYWYQQLPGTAPKLLIYSDSQRPSGVPDRFSGSKSGTSASLAISGLRSEDEADYYCGTWDYSLSGYVFGGGTKLTVLR	binds	binds
B8 clone monoclonal antibody (Production Example 6) (antibody, mouse IgG2a, V domains shown) VH: EVQLLESGGGLVQPGGSLRLSCAASGFTFSDYYMSWVRQAPGKGLEWVSGISHDSGSKYYADSVKGRFTISRDNSKNTLYLQMNSLRAEDTAVYYCARHWTTFDYWGQGTLVTVSS VL: QSVLTQPPSASGTPGQRVTISCSGSSSNIGSNNVTWYQQLPGTAPKLLIYANSNRPSGVPDRFSGSKSGTSASLAISGLRSEDEADYYCGAWDYSLSAYVFGGGTKLTVLR	binds	
D9 clone monoclonal antibody (Production Example 7) (antibody, mouse IgG2a, V domains shown) VH: EVQLLESGGGLVQPGGSLRLSCAASGFTFSNYAMSWVRQAPGKGLEWVSAIYPGGGSIYYADSVKGRFTISRDNSKNTLYLQMNSLRAEDTAVYYCARDILPCPWGRCYYDYAMDVWGQGTLVTVSS VL: QSVLTQPPSASGTPGQRVTISCSDSSSNIGSNTVSWYQQLPGTAPKLLIYADNNRPSGVPDRFSGSKSGTSASLAISGLRSEDEADYYCGTWDYSLSGYVFGGGTKLTVLR	binds	
G3 clone monoclonal antibody (Production Example 4) (antibody, mouse IgG2a, V domains shown) VH: EVQLLESGGGLVQPGGSLRLSCAASGFTFSNYDMSWVRQAPGKGLEWVSSISPSSGSIYYADSVKGRFTISRDNSKNTLYLQMNSLRAEDTAVYYCAKDLDAFWRPSFDYWGQGTLVTVSS VL: QSVLTQPPSASGTPGQRVTISCTGSSSNIGNNNVNWYQQLPGTAPKLLIYSDSHRPSGVPDRFSGSKSGTSASLAISGLRSEDEADYYCGSWDDSLSAYVFGGGTKLTVLR	binds	
